A weaker result is weaker than the reference pair of the same experiment.
Columns and labels:
Assay in all cases: EMSA
[1] = molecular target: HsRad52(1-212) H69A (Homo sapiens) (UniProt P43351); conditions: lost most of ssDNA binding; 1 mM MgCl2, 37 C; purified recombinant protein; label: 5'-32P; single-stranded DNA
[2] = molecular target: HsRad52(1-212) K169A (Homo sapiens) (UniProt P43351); conditions: lowered versus wild type; 1 mM MgCl2, 37 C; purified recombinant protein; label: 5'-32P; single-stranded DNA
[3] = molecular target: HsRad52(1-212) R153A (Homo sapiens) (UniProt P43351); conditions: lowered versus wild type; 1 mM MgCl2, 37 C; purified recombinant protein; label: 5'-32P; single-stranded DNA
[4] = molecular target: HsRad52(1-212) R55A (Homo sapiens) (UniProt P43351); conditions: lost most of ssDNA binding; 1 mM MgCl2, 37 C; purified recombinant protein; label: 5'-32P; single-stranded DNA
[5] = molecular target: HsRad52(1-212) R70A (Homo sapiens) (UniProt P43351); conditions: lost most of ssDNA binding; 1 mM MgCl2, 37 C; purified recombinant protein; label: 5'-32P; single-stranded DNA
[6] = molecular target: HsRad52(1-212) Y65A (Homo sapiens) (UniProt P43351); conditions: lost most of ssDNA binding; 1 mM MgCl2, 37 C; purified recombinant protein; label: 5'-32P; single-stranded DNA

Amino acid sequences for entries named in this document (tags omitted). Residues count along the entry.
UniProt P43351, 1-212 H69A: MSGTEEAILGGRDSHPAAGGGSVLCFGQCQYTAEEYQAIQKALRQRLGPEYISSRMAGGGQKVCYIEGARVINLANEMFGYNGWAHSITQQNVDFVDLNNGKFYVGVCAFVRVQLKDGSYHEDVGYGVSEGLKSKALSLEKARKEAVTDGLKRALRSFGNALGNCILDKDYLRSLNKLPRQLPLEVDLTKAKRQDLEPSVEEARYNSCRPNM
UniProt P43351, 1-212 K169A: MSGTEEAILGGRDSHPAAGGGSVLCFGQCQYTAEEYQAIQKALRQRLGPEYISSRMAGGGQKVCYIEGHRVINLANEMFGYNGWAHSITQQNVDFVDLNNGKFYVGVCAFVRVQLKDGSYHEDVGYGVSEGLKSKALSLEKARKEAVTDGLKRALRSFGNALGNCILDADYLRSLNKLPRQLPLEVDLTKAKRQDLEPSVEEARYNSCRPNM
UniProt P43351, 1-212 R153A: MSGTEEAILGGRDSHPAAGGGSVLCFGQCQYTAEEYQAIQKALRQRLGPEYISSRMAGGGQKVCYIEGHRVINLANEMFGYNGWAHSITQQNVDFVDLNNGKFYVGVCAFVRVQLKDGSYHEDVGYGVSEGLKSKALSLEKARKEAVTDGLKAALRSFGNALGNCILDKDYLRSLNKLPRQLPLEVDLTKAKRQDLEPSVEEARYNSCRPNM
UniProt P43351, 1-212 R55A: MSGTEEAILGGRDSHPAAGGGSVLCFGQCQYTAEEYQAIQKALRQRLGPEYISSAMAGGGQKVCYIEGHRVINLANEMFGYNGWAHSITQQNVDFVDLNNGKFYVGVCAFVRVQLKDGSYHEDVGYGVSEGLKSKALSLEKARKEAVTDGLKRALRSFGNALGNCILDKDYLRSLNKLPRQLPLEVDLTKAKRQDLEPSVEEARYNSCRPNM
UniProt P43351, 1-212 R70A: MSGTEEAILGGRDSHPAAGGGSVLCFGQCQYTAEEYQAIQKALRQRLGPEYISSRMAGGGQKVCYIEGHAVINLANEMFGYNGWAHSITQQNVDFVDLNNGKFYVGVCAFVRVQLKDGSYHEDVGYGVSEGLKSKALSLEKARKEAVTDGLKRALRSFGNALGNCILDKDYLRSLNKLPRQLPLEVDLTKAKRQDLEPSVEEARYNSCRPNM
UniProt P43351, 1-212 Y65A: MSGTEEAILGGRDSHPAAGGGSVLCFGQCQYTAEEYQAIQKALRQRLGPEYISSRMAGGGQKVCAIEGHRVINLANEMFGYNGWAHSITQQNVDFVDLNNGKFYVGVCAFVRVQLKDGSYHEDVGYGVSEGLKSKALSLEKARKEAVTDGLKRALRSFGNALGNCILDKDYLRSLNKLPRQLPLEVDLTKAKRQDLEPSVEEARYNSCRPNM

Measured: binding result

ATTTCATGCTAGACAGAAGAATTCTCAGTAACTTCTTTGTGCTGTGTGTA [SAT-1 50-mer]
binds more weakly: all assays above

— patent publication US20070031849
